Reference: US8992932B2 (Seattle Genetics, Inc., priority 2011, dated 2015)

test: general procedure: solution-phase peptide synthesis; HATU/DIPEA or EDC/HOBt/DIPEA; conditions: late stage modification step, trifluoroacetate

Substance | step yield
N-(6-{[(55)-5-Amino-5-carboxypentyl]amino}-6-oxohexyl)-N-methyl-L-valyl-N-[(3R,4S,5S)-1-{(2S)-2-[(1R,2R)-3-{[(1S)-1-carboxy-2-(1H-indol-3-yl)ethyl]amino}-1-methoxy-2-methyl-3-oxopropyl]pyrrolidin-1-yl}-3-methoxy-5-methyl-1-oxoheptan-4-yl] | 99% of theory
N-(6-{[(55)-5-Amino-5-carboxypentyl]amino}-6-oxohexyl)-N-methyl-L-valyl-N-[(3R,4S,5S)-1-{(2S)-2-[(1R,2R)-3-{[(1S)-1-carboxy-2-(4-hydroxyphenyl)ethyl]amino}-1-methoxy-2-methyl-3-oxopropyl]pyrrolidin-1-yl}-3-methoxy-5-methyl-1-oxoheptan-4-yl] | 90% of theory
N-methyl-L-valyl-N-[(3R,4S,5S)-3-methoxy-1-{(2S)-2-[(1R,2R)-1-methoxy-2-methyl-3-oxo-3-{[(2S,3E)-1-phenyl-4-(4-sulphophenyl)but-3-en-2-yl]amino}propyl]pyrrolidin-1-yl}-5-methyl-1-oxoheptan-4-yl]-N-methyl-L-valinamide trifluoroacetate | 98% of theory
